{"source": "PubChem BioAssay AID2685", "about": "(National Center for Advancing Translational Sciences (NCATS), 2010)", "note": "Among all 320,000 compounds or so, about 2,100 (0.66%) were called active. The shares of active, inactive and inconclusive entries below differ from those in the screen. Calls follow the shape of the dose curve; as a rule, active = well fitted inhibition curve with a large enough effect in the signal ratio, with a control signal flat (not every such curve was filed as active); inconclusive = small, poorly fitted or top-dose-only effect, or effect the other way, or a change in a side signal; inactive = flat fitted curve, though single readings scatter; the % refers to the signal ratio. Potencies beside an inconclusive call are fits to weak or partial responses and may not hold up. % is scaled to controls: 0 for no effect and ±100 for the full control effect; potency is read from the fitted curve at half-maximal effect.", "data": [{"experiment": "qHTS Assay for Lipid Storage Modulators in Drosophila S3 Cells", "settings": "BODIPY lipid droplet fluorescence, 18-24 h, cells fed with added oleic acid; lipid storage change, negative = inhibition: at 46.1 µM (top of the series) unless noted", "summary_of_the_method": "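Drosophila S3 cells got compounds at several concentrations plus oleic acid (400 uM solution). Laser-scanning cytometry with 488 nm excitation read lipid droplets at 500-530 nm and cells at 575-640 nm. Percent activity was relative to 20 uM Triacsin C.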", "values": [{"molecule": "O=C1CNC(=S)N1Cc1ccc(Cl)cc1", "lipid storage change, negative = inhibition": "inconclusive: -3.36%"}, {"molecule": "c1ccc2c(-c3nc(-c4ccncc4)no3)cccc2c1", "lipid storage change, negative = inhibition": "inconclusive: 246%"}, {"molecule": "COCCCNC(=S)Nc1cccc2ncccc12", "lipid storage change, negative = inhibition": "inconclusive: -50.4%"}, {"molecule": "COc1ccc(OCc2nn3c(-c4cccc(OC)c4)nnc3s2)cc1", "lipid storage change, negative = inhibition": "inconclusive: 26%"}, {"molecule": "CCn1c(SCC(=O)NCc2ccc3c(c2)OCO3)nnc1-c1ccco1", "Potency": "inconclusive: 29.1 µM [falling, single point]"}, {"molecule": "c1ccc(CCNCCOc2ccccc2)cc1", "lipid storage change, negative = inhibition": "inconclusive: 19.1%"}, {"molecule": "CCC(c1nnc(SCC(=O)N2CC3(C)CC2CC(C)(C)C3)o1)N(C)C", "note": "(stereo unspecified)", "lipid storage change, negative = inhibition": "inconclusive: 3.2%"}, {"molecule": "Cc1cccc2c1NC(=O)/C2=C\\C(=O)c1cccs1", "lipid storage change, negative = inhibition": "inconclusive: -138%"}, {"molecule": "Cc1ccc(NC(=O)CCCc2nc3ccccc3c(=O)[nH]2)c(Cl)c1", "lipid storage change, negative = inhibition": "inconclusive: 9.91%"}, {"molecule": "CCc1n[nH]c(=S)n1/N=C/c1ccc2c(c1)OCO2", "lipid storage change, negative = inhibition": "inconclusive: -17.4%"}, {"molecule": "CCc1nnc(NS(=O)(=O)c2ccc(N/C=C\\C(=O)c3ccc(C)cc3)cc2)s1", "lipid storage change, negative = inhibition": "inconclusive: 17.1%"}, {"molecule": "O=C(/C=C/c1cccs1)Nc1ccc(N2CCOCC2)c(S(=O)(=O)Nc2cc(Cl)ccc2Cl)c1", "lipid storage change, negative = inhibition": "inconclusive: 24.1%"}, {"molecule": "O=C(Nc1ccc(-n2cc(Br)cn2)cc1)c1ccncc1", "lipid storage change, negative = inhibition": "inconclusive: -72.4%"}, {"molecule": "Cc1ncc(C(=O)O)c(C(=O)O)c1N", "lipid storage change, negative = inhibition": "inconclusive: -0.899%"}, {"molecule": "O=S(=O)(CCc1ccncc1)Cc1ccc2c3c(cccc13)CC2", "lipid storage change, negative = inhibition": "inconclusive: 30.7%"}, {"molecule": "O=C(Nc1ccc(C(F)(F)F)cc1)c1cc(S(=O)(=O)NCC2COc3ccccc3O2)ccc1F", "note": "(stereo unspecified)", "Potency": "inconclusive: 29.1 µM [falling, single point]"}, {"molecule": "CC1CCCN(C(=O)c2ccc(NC(=O)CC3SC(N4CCCC4)=NC3=O)cc2)C1", "note": "(stereo unspecified)", "lipid storage change, negative = inhibition": "inconclusive: 35.7%"}, {"molecule": "CCC(C)[C@H](NC(=O)[C@@H]1Cc2c([nH]c3ccccc23)C2c3ccccc3C(=O)N21)C(=O)N1CCC[C@@H]1C(=O)O", "note": "(stereo partly specified)", "lipid storage change, negative = inhibition": "inconclusive: -13.9%"}, {"molecule": "CCN(CC(=O)Nc1cc(Cl)ccc1C)C(=O)Cc1ccsc1", "Potency": "inconclusive: 11.6 µM [activator, partial curve, poor fit]"}, {"molecule": "COc1ccc(NC(=O)CSc2nnc(C3CC3)n2C)cc1S(=O)(=O)N1CCOCC1", "Potency": "inconclusive: 0.82 µM [activator, full curve]"}, {"molecule": "C(=NCCCN1CCOCC1)c1ccc2c(c1)OCO2", "lipid storage change, negative = inhibition": "inconclusive: 33.1%"}, {"molecule": "CCOc1ccc(Br)cc1CNc1ccc2c(c1)OCCO2", "Potency": "inconclusive: 29.1 µM [falling, single point]"}, {"molecule": "CN(C)CCN1C(=O)C(=O)/C(=C(/O)c2ccc(OCc3ccccc3)cc2)C1c1ccncc1", "note": "(stereo unspecified)", "Potency": "inconclusive: 29.1 µM [falling, single point]"}, {"molecule": "COCCOC(=O)C1=C(C)NC2=C(C(=O)CC(C)(C)C2)C1c1ccc2c(c1)OCO2", "note": "(stereo unspecified)", "lipid storage change, negative = inhibition": "inconclusive: 19.9% [at 9.22 µM]"}, {"molecule": "O=C(COC(=O)/C=C/c1ccc(Cl)cc1)NCCN1C(=O)CSC1=O", "lipid storage change, negative = inhibition": "inconclusive: 79.7%"}, {"molecule": "CC(=O)N1CCc2cc(S(=O)(=O)NCCC(=O)NCCc3ccccc3)ccc21", "Potency": "inconclusive: 1.03 µM [activator, partial curve]"}, {"molecule": "COc1ccc(/C=N/NS(=O)(=O)c2ccc(F)cc2)cc1COc1cc(F)ccc1[N+](=O)[O-]", "lipid storage change, negative = inhibition": "inconclusive: 6.1%"}, {"molecule": "O=C(C1CCCN(S(=O)(=O)c2cccs2)C1)N1CCc2ccccc2C1", "note": "(stereo unspecified)", "Potency": "inconclusive: 6.51 µM [activator, single point]"}, {"molecule": "NS(=O)(=O)c1ccc(CNc2ccc3ccccc3n2)cc1", "Potency": "inconclusive: 0.0046 µM [rising, full curve, poor fit]"}, {"molecule": "CC(C)c1cccc(C(C)C)c1NC(=O)c1ccccc1", "lipid storage change, negative = inhibition": "inconclusive: -25.9%"}, {"molecule": "CC(C)(C)C(=O)C(Cc1ccccc1)n1cncn1", "note": "(stereo unspecified)", "Potency": "inconclusive: 5.8 µM [falling, partial curve]"}, {"molecule": "Cc1ccc(N2C(=O)c3ccc(C(=O)NCCN4CCOCC4)cc3C2=O)cc1", "lipid storage change, negative = inhibition": "inconclusive: -36.2% [at 0.0737 µM]"}, {"molecule": "C/C(=N\\Nc1nc2ccccc2[nH]1)c1ccc(C)o1", "Potency": "inconclusive: 29.1 µM [falling, single point]"}, {"molecule": "CCC(C(=O)N1CCOCC1)n1c(C(=O)OC)cc2occc21", "note": "(stereo unspecified)", "Potency": "inconclusive: 0.103 µM [activator, partial curve, poor fit]"}, {"molecule": "CCOCCCNc1ccc(N2C(=O)CCCC2=O)cc1[N+](=O)[O-]", "Potency": "inconclusive: 18.4 µM [falling, single point]"}, {"molecule": "C=CCNC(=O)c1ccc(N(C)S(=O)(=O)c2ccc(OC)cc2)cc1", "Potency": "inconclusive: 16.4 µM [falling, partial curve, poor fit]"}, {"molecule": "CCCOC(=O)c1cccc(Nc2nc(-c3cccnc3)nc3ccccc23)c1", "Potency": "inconclusive: 23.1 µM [cytotoxic, partial curve]"}, {"molecule": "CS(=O)(=O)N1CCc2cc(C(=O)N3CCN(c4ccc(F)cc4)CC3)ccc21", "Potency": "inconclusive: 0.0058 µM [activator, full curve, poor fit]"}, {"molecule": "O=C(Cn1cnc([N+](=O)[O-])n1)N/N=C/c1ccc(O)cc1O", "Potency": "inconclusive: 6.51 µM [cytotoxic, single point]"}, {"molecule": "COc1ccc([N+](=O)[O-])cc1NCc1ccccc1C", "lipid storage change, negative = inhibition": "inconclusive: 5.19%"}, {"molecule": "Cc1ccc(NC(=O)c2cccc(C(=O)Nc3ccc(C)cc3C(=O)O)c2)c(C(=O)O)c1", "lipid storage change, negative = inhibition": "inconclusive: 1.66%"}, {"molecule": "CC1(C)NC(=O)N(CCOCCOc2c(Cl)cc(Cl)cc2Cl)C1=O", "Potency": "inconclusive: 6.51 µM [rising, full curve]"}, {"molecule": "Cc1cccc(-n2c(C)cc(/C=N/NC(=O)c3ccc(CN4CCOCC4)cc3)c2C)c1", "lipid storage change, negative = inhibition": "inconclusive: 44.4%"}, {"molecule": "COc1ccc(NC(=O)c2ccc(NCCN3C(=O)CCC3=O)c([N+](=O)[O-])c2)cc1", "lipid storage change, negative = inhibition": "inconclusive: -5.98% [cytotoxic]"}, {"molecule": "CC(C)c1ccc(/C=N\\NC(=O)c2ccc(Cn3cccn3)o2)cc1", "lipid storage change, negative = inhibition": "inconclusive: -1.93%"}, {"molecule": "COC(=O)C1=C(C(=O)c2ccc(C)cc2)C(c2ccccc2)n2nnnc2N1", "note": "(stereo unspecified)", "lipid storage change, negative = inhibition": "inconclusive: -25.9%"}]}]}
